Data reported in US20110092476A1, “Bicycloheteroaryl compounds as P2X7 modulators and uses thereof” (Renovis, Inc., priority 2006, published 2011).

Assay: Pharmacokinetic evaluation following intravenous and oral administration in rats (oral bioavailability)
Settings: male Sprague-Dawley rats, PO 1 to 5 mg/kg vs IV 1 mg/kg, AUCinf dose-normalized

SMILES: O=C(Cc1ccc(Cl)c(C(F)(F)F)c1)Nc1cccc2c(=O)n(CCO)ccc12 [Compound 65, 2-(4-Chloro-3-trifluoromethyl-phenyl)-N-[2-(2-hydroxy-ethyl)-1-oxo-1,2-dihydro-isoquinolin-5-yl]-acetamide]
- Oral Bioavailability F (%): + (0-25% F)
